Values after ≈ are worked out from the molar mass of the structure shown. The structures given here were assigned with low confidence; some may be wrong.
What was measured:
[1] = biological target: BuChE from equine serum (eqBuChE) (Equus caballus, UniProt P81908); settings: Ellman method, 5 min pre-incubation at 25° C., n=3
[2] = biological target: human erythrocyte AChE (hAChE) (Homo sapiens, UniProt P22303); settings: Ellman method, 5 min pre-incubation at 25° C., n=3

Protein sequences, listed by entry. Tags and fused reporters are not part of them. Residues count along the entry.
UniProt P81908, whole entry: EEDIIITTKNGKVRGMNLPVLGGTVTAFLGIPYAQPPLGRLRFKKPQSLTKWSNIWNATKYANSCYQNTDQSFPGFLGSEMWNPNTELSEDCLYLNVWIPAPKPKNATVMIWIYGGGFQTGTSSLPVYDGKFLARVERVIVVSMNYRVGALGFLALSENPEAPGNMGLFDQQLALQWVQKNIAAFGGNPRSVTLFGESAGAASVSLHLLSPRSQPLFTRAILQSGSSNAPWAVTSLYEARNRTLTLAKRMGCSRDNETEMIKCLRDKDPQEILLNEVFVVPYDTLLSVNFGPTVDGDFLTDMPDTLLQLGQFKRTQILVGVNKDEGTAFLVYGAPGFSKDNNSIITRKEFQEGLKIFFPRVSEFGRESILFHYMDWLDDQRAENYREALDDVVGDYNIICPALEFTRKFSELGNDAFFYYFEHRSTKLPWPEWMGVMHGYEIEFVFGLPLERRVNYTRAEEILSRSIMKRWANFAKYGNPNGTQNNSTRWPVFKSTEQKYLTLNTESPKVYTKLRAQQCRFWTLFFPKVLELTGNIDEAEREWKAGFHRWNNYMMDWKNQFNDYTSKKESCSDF
UniProt P22303, 32-617 isoform 2 limits assumed: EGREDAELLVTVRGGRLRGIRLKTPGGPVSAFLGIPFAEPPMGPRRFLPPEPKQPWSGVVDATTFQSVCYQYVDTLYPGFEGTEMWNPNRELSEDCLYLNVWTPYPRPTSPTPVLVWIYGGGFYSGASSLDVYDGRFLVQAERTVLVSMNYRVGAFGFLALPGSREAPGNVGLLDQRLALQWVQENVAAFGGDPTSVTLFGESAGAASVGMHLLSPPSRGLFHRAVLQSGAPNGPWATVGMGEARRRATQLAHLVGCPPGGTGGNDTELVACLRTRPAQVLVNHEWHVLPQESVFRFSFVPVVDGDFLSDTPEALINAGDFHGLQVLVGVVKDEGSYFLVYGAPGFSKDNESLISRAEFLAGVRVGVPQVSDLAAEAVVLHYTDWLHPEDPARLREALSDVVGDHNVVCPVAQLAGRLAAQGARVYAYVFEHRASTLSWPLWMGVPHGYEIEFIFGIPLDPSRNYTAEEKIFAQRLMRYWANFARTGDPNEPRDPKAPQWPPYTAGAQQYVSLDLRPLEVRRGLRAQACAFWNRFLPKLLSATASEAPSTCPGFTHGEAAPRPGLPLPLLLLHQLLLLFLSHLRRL

CCCCCCCCCCCCCCCCC(CCCCCCCCCCCCCC)COP(=O)(Oc1ccccc1)Oc1ccccc1 (centres unmarked)
IC50 eqBuChE [1]: 127 µg/mL (≈ 182 µM)
IC50 hAChE [2]: 23 µg/mL (≈ 32.9 µM)

Source: US20230183592A1, “[…] ORGANO[…] AS NON-[…]-WEAR AGENTS” (priority 2020, published 2023)
